In US9968579B2, “ATRA for modulating Pin1 activity and stability” (Beth Israel Deaconess Medical Center, Inc., priority 2014, dated 2018):
At least one structure is not confirmed: it was looked up by name or label, or the drawing left a doubt.

Assays:
Pin1 acetylation = Pin1 acetylation in cells (Flag IP, acetyl-lysine immunoblot); assay type: cell-based; conditions: p300 over-expressed
Source text: FIG. 1 depicts HTS results for glucose starvation induced Pin1 deacetylation in cells 100. In order to perform glucose starvation induced Pin1 deacetylation in cells, cells were transfected with Flag-Pin1 and subjected to various stresses, followed by Flag IP before with immunoblotting acetyl-lysine (AcK) or Flag antibody. Glu-, glucose starvation; HS, heat shock; UV, UV radiation. […] Overexpression of p300-HA increased Pin1 acetylation in cells. Various histone acetyl transferases were co-transfected with Flag-Pin1 into cells, followed by assaying acetylated Pin1. p300 inhibitors, Garcinol (Gar) and Anacardic acid (AnAc), reversed p300-increased Pin1 acetylation.
To corroborate this notion, 2-deoxyglucose (2-DG), a glucose analog, was used to mimic glucose starvation (Wick et al., 1955). […] Protein acetylation may be catalytically modulated by a particular pair of histone acetyl transferase (HAT) and deacetylase (HDAC) (Yang and Seto, 2007). To identify the HAT and HDAC that modulates Pin1 acetylation, Flag-tagged Pin1 was expressed with several HATs including p300, CBP or GCN5 in cells, followed by coimmunoprecipitation (Co-IP) with anti-Flag antibody and immunoblotting with anti-acetyl lysine antibody.

[1] = tested on: PML-RARα and Pin1 in NB4 cells; assay: PML-RARα and Pin1 protein levels in NB4 cells; assay type: cell-based, human

For C=C(C)[C@@H](CC=C(C)C)C[C@@]12C[C@@H](CC=C(C)C)C(C)(C)[C@@](CC=C(C)C)(C(=O)C(C(=O)c3ccc(O)c(O)c3)=C1O)C2=O [Garcinol], which “effect on p300-increased Pin1 acetylation” value (Pin1 acetylation) is on record?
Its value is “reversed”.

For O=C1C=CC(=O)c2c(O)cccc21 [Juglone], which PML-RARα degradation [1] is on record?
The PML-RARα degradation was “induced PML-RARα degradation in a dose-dependent manner”.

What about the Pin1 degradation [1] of the same compound?
Its Pin1 degradation is “inhibited Pin1 without degrading it”.
